Reference: patent publication US20090209606A1 (priority 2004, published 2009)

Test system: 60 human tumor cell lines
Details: NCI COMPARE

Nc1ncn([C@@H]2O[C@H](CO)[C@@H](O)[C@@H]2O)c(=O)n1 [Ara-AC (Fazarabine), Fazarabine]
Correlation (PCC) with bendamustine, TGI: 0.524 (TGI)
